Test [1] addresses nYFP-CEPA1 (Arabidopsis thaliana). Kind of test: split reporter; BiFC (MoBiFC vectors): nYFP (V2-D174) fused to mature CEPA1 and cYFP (G175-K239) fused to the mature candidates, AtRBCS cTP upstream; N. benthamiana leaves infiltrated with Agrobacterium, protoplasts after 3 d, confocal microscopy.
The target in test [2] is CEPA1-nYFP (Arabidopsis thaliana). Described as above.

No constants are given. Whether binding was seen depends on the method and setting. In cells and extracts the contact can be indirect. For some assays here: Binding calls can cover weak binding; strength is not graded here. Where a sequence is shown, tags or fusion partners need not be part of it.

B1: PSA3-cYFP (protein, UniProt Q9M3C6 46-277)
chain: AYIEKPNSFSTFANKVIGSLPVIGLLARIISDEGGVGRDLVDFAEFRKRVGNKCTPDDSRAFYEFQQRRGKAGEPLYVLLCCWVAAVGAGLLKSEEILEGVTRVSISNDLEFEEQNFIALMTEARQRRAKLNIDAPTIPMELRVEKALEGIYACCFRRGLIEEEDEKLLKVMLIAVFPSVEKSEIERIIKEKATRVEEGGEEENVMAKRLPKEAIQMQMKDLEFLQQQNIES
As for B1, the binding result in test [1] was “binds”.

B2: PPD1-cYFP (protein, UniProt O23403 105-287)
chain: STPVFREYIDTFDGYSFKYPQNWIQVRGAGADIFFRDPVVLDENLSVEFSSPSSSNYTSLEDLGSPEEVGKRVLRQYLTEFMSTRLGVKRQANILSTSSRVADDGKLYYQVEVNIKSYANNNELAVMPQDRVARLEWNRRYLAVLGVENDRLYSIRLQTPEKVFLEEEKDLRRVMDSFRVEKI
As to B2, the binding result in test [2] is “no binding”.

(Values after PMC11449006.)
